According to paper PMC9205938:
No constants are given. Whether binding was seen depends on the method and setting. Binding seen in cells or lysates may run through a third protein. Binding can be weak; no strength is given.

Biological target: zinc finger domain of ZFP281 (FLAG-tagged ZFP281 truncated protein)
Assay: co-IP; N-terminally FLAG-tagged ZFP281 (full length, truncated) or BRCA2 truncated proteins expressed in 293 T cells for 48 hrs; ANTI-FLAG M2 affinity gel, western blot

binding: binds
B1: EMSY in 293 cells (protein, UniProt Q7Z589 1-1322)
chain: MPVVWPTLLDLSRDECKRILRKLELEAYAGVISALRAQGDLTKEKKDLLGELSKVLSISTERHRAEVRRAVNDERLTTIAHNMSGPNSSSEWSIEGRRLVPLMPRLVPQTAFTVTANAVANAAIQHNASLPVPAETGSKEVVCYSYTSTTSTPTSTPVPSGSIATVKSPRPASPASNVVVLPSGSTVYVKSVSCSDEDEKPRKRRRTNSSSSSPVVLKEVPKAVVPVSKTITVPVSGSPKMSNIMQSIANSLPPHMSPVKITFTKPSTQTTNTTTQKVIIVTTSPSSTFVPNILSKSHNYAAVTKLVPTSVIASTTQKPPVVITASQSSLVSNSSSGSSSSTPSPIPNTVAVTAVVSSTPSVVMSTVAQGVSTSAIKMASTRLPSPKSLVSAPTQILAQFPKQHQQSPKQQLYQVQQQTQQQVAQPSPVSHQQQPQQSPLPPGIKPTIQIKQESGVKIITQQVQPSKILPKPVTATLPTSSNSPIMVVSSNGAIMTTKLVTTPTGTQATYTRPTVSPSIGRMAATPGAATYVKTTSGSIITVVPKSLATLGGKIISSNIVSGTTTKITTIPMTSKPNVIVVQKTTGKGTTIQGLPGKNVVTTLLNAGGEKTIQTVPTGAKPAILTATRPITKMIVTQPKGIGSTVQPAAKIIPTKIVYGQQGKTQVLIKPKPVTFQATVVSEQTRQLVTETLQQASRVAEAGNSSIQEGKEEPQNYTDSSSSSTESSQSSQDSQPVVHVIASRRQDWSEHEIAMETSPTIIYQDVSSESQSATSTIKALLELQQTTVKEKLESKPRQPTIDLSQMAVPIQMTQEKRHSPESPSIAVVESELVAEYITTERTDEGTEVAFPLLVSHRSQPQQPSQPQRTLLQHVAQSQTATQTSVVVKSIPASSPGAITHIMQQALSSHTAFTKHSEELGTEEGEVEEMDTLDPQTGLFYRSALTQSQSAKQQKLSQPPLEQTQLQVKTLQCFQTKQKQTIHLQADQLQHKLPQMPQLSIRHQKLTPLQQEQAQPKPDVQHTQHPMVAKDRQLPTLMAQPPQTVVQVLAVKTTQQLPKLQQAPNQPKIYVQPQTPQSQMSLPASSEKQTASQVEQPIITQGSSVTKITFEGRQPPTVTKITGGSSVPKLTSPVTSISPIQASEKTAVSDILKMSLMEAQIDTNVEHMIVDPPKKALATSMLTGEAGSLPSTHMVVAGMANSTPQQQKCRESCSSPSTVGSSLTTRKIDPPAVPATGQFMRIQNVGQKKAEESPAEIIIQAIPQYAIPCHSSSNVVVEPSGLLELNNFTSQQLDDEETAMEQDIDSSTEDGTEPSPSQSSAERS
